According to publication PMC9100763:

Molecular target: EgrIAA20 (Eucalyptus grandis)
Assay: two-hybrid; targeted two-hybrid: Gal4 BD and Gal4 AD fusions co-transformed in yeast; growth on quadruple dropout medium lacking leucine, tryptophan, histidine and adenine (QDO/X/A in the methods), DDO as growth control; 10-fold gradient dilution in Figure 9

B1: Arabidopsis ARF5/MP (AtARF5) (protein, UniProt P93024 1-902)
chain: MMASLSCVEDKMKTSCLVNGGGTITTTTSQSTLLEEMKLLKDQSGTRKPVINSELWHACAGPLVCLPQVGSLVYYFSQGHSEQVAVSTRRSATTQVPNYPNLPSQLMCQVHNVTLHADKDSDEIYAQMSLQPVHSERDVFPVPDFGMLRGSKHPTEFFCKTLTASDTSTHGGFSVPRRAAEKLFPPLDYSAQPPTQELVVRDLHENTWTFRHIYRGQPKRHLLTTGWSLFVGSKRLRAGDSVLFIRDEKSQLMVGVRRANRQQTALPSSVLSADSMHIGVLAAAAHATANRTPFLIFYNPRACPAEFVIPLAKYRKAICGSQLSVGMRFGMMFETEDSGKRRYMGTIVGISDLDPLRWPGSKWRNLQVEWDEPGCNDKPTRVSPWDIETPESLFIFPSLTSGLKRQLHPSYFAGETEWGSLIKRPLIRVPDSANGIMPYASFPSMASEQLMKMMMRPHNNQNVPSFMSEMQQNIVMGNGGLLGDMKMQQPLMMNQKSEMVQPQNKLTVNPSASNTSGQEQNLSQSMSAPAKPENSTLSGCSSGRVQHGLEQSMEQASQVTTSTVCNEEKVNQLLQKPGASSPVQADQCLDITHQIYQPQSDPINGFSFLETDELTSQVSSFQSLAGSYKQPFILSSQDSSAVVLPDSTNSPLFHDVWDTQLNGLKFDQFSPLMQQDLYASQNICMSNSTTSNILDPPLSNTVLDDFCAIKDTDFQNHPSGCLVGNNNTSFAQDVQSQITSASFADSQAFSRQDFPDNSGGTGTSSSNVDFDDCSLRQNSKGSSWQKIATPRVRTYTKVQKTGSVGRSIDVTSFKDYEELKSAIECMFGLEGLLTHPQSSGWKLVYVDYESDVLLVGDDPWEEFVGCVRCIRILSPTEVQQMSEEGMKLLNSAGINDLKTSVS
With B1 the binding was “binds”.

These are yes or no findings as the source states them, for the method shown. A result given as binding can be weak or reduced; the word gives no strength.
